Patent US20230078642A1
Positions count from the first letter of the chain named. In names and notes the source's numbering stands. Results are given in words; binding and its absence hold for the method and conditions named. Binding seen in cells or lysates may run through a third protein. Some results given as binding are weak or reduced against the parent protein; the word gives no strength. Where a sequence is shown, tags or fusion partners need not be part of it. Values belong to the binder of their own block, whether it stands above or below them.

Amino acid sequences for entries named in this document (tags omitted).
UniProt Q9WTL8: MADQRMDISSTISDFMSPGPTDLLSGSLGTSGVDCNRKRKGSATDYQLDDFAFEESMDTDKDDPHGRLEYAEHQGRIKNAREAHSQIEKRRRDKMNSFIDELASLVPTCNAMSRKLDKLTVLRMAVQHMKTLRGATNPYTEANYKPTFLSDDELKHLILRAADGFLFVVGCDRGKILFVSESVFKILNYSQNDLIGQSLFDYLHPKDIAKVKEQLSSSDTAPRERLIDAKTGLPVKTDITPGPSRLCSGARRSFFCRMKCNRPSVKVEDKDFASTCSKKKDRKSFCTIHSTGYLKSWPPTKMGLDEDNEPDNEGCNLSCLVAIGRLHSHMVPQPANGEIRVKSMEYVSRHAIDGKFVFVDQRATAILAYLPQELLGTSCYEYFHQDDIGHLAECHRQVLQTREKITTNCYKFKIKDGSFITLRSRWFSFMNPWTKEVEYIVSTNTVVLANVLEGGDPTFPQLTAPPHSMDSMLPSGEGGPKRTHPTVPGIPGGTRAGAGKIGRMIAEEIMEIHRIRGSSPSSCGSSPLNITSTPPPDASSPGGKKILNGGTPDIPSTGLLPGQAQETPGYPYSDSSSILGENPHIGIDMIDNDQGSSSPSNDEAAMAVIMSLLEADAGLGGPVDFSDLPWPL

Legend:
[1] = target: BMAL1 (tag-free, mBmal1) (mouse) (UniProt Q9WTL8); assay: co-immunoprecipitation with anti-FLAG resin from HEK 293T lysate, western blot with anti-BMAL1; DMSO, 10 µM and 40 µM of the small molecule CLK8
[2] = target: BMAL1 (tag-free, mBmal1) (mouse) (UniProt Q9WTL8); assay: pull-down with biotinylated CLK8 (small molecule bait) on NeutrAvidin resin from whole cell lysate, western blot
[3] = target: BMAL1 (tag-free, mBmal1) (mouse) (UniProt Q9WTL8); assay: pull-down with biotinylated CLK8 (small molecule bait) from HEK 293T lysate, western blot; wild type compared with CLOCK-F80A-K220A
[4] = target: BMAL1 (tag-free, mBmal1) (mouse) (UniProt Q9WTL8); assay: co-immunoprecipitation with anti-FLAG resin from HEK 293T lysate, western blot with anti-BMAL1; with and without the small molecule CLK8

binding [1]: binds
B1: FLAG-tagged CLOCK (wild type) (protein, not shown: small tags and cut ends)
chain: MLFTVSCSKMSSIVDRDDSSIFDGLVEEDDKDKAKRVSRNKSEKKRRDQFNVLIKELGSMLPGNARKMDKSTVLQKSIDFLRKHKEITAQSDASEIRQDWKPTFLSNEEFTQLMLEALDGFFLAIMTDGSIIYVSESVTSLLEHLPSDLVDQSIFNFIPEGEHSEVYKILSTHLLESDSLTPEYLKSKNQLEFCCHMLRGTIDPKEPSTYEYVKFIGNFKSLNSVSSSAHNGFEGTIQRTHRPSYEDRVCFVATVRLATPQFIKEMCTVEEPNEEFTSRHSLEWKFLFLDHRAPPIIGYLPFEVLGTSGYDYYHVDDLENLAKCHEHLMQYGKGKSCYYRFLTKGQQWIWLQTHYYITYHQWNSRPEFIVCTHTVVSYAEVRAERRRELGIEESLPETAADKSQDSGSDNRINTVSLKEALERFDHSPTPSASSRSSRKSSHTAVSDPSSTPTKIPTDTSTPPRQHLPAHEKMVQRRSSFSSQSINSQSVGSSLTQPVMSQATNLPIPQGMSQFQFSAQLGAMQHLKDQLEQRTRMIEANIHRQQEELRKIQEQLQMVHGQGLQMFLQQSNPGLNFGSVQLSSGNSSNIQQLAPINMQGQVVPTNQIQSGMNTGHIGTTQHMIQQQTLQSTSTQSQQNVLSGHSQQTSLPSQTQSTLTAPLYNTMVISQPAAGSMVQIPSSMPQNSTQSAAVTTFTQDRQIRFSQGQQLVTKLVTAPVACGAVMVPSTMLMGQVVTAYPTFATQQQQSQTLSVTQQQQQQSSQEQQLTSVQQPSQAQLTQPPQQFLQTSRLLHGNPSTQLILSAAFPLQQSTFPQSHHQQHQSQQQQQLSRHRTDSLPDPSKVQPQ

binding [2]: binds
binding [3]: binds
B2: CLOCK (tag-free, hsClock, wild type) (protein)
chain: B1 chain

binding [4]: binds
B3: FLAG-tagged CLOCK-F80A-K220A mutant (protein, not shown: small tags and cut ends)
chain: B1 chain with F80A, K220A
